Patent US7473681B2, “Kahalalide F” (Pharma Mar, S.A., priority 2000, dated 2009)
Part of at least one peptide drawing is inferred or uncertain, most often the ends. At least one read-out could not be matched to a standard name with certainty.

Test: Solubility of KF and recovery after reconstitution and dilution
Format: physicochemical
Details: polysorbate 80 0.1-0.5% w/v, citric acid monohydrate 5-15 mM
Description: Methods. Solubility and stability of KF were studied as a function of polysorbate 80 (P80; 0.1-0.5% w/v) and citric acid monohydrate (CA; 5-15 mM) concentrations using an experimental design approach. Stabilities of KF lyophilized products containing crystalline (mannitol) or amorphous (sucrose) bulking agents were studied at +5° C. and +30° C. in the dark. Lyophilized products were characterized by infrared (IR) spectroscopy and differential scanning calorimetry. Recovery studies after reconstitution of KP lyophilized product and further dilution in infusion fluid were carried out to select an optimal reconstitution vehicle. Results. […] A combination of 0.1% w/v P80 and 5 mM CA was selected for further investigation. […] The glass transition temperature of the sucrose-based product was determined to be +46° C. The amorphous state of the product was confirmed by IR analysis. […] A stable lyophilized formulation is presented containing 100 μg of kahalalide F, 100 mg sucrose, 2.1 mg CA and 2 mg P80 to be reconstituted with a vehicle composed of 5/5/90% v/v/v CEW, and to be further dilute using normal saline.

## C/C=C1\NC(=O)[C@H](Cc2ccccc2)NC(=O)[C@@H](C(C)C)NC(=O)[C@@H](C(C)CC)NC(=O)[C@H](NC(=O)C(NC(=O)[C@H](CCCN)NC(=O)[C@H]2CCCN2C(=O)[C@H](NC(=O)[C@@H](NC(=O)[C@@H](NC(=O)[C@H](NC(=O)CCCC(C)C)C(C)C)C(C)O)C(C)C)C(C)C)C(C)CC)C(C)OC(=O)[C@H](C(C)C)NC1=O (single isomer, unassigned) [Kahalalide F, kahalalide F]
  solubilization of KF: a combination of P80 and CA is necessary to solubilize KF
